This is one part of the list.
Columns and labels:
Test in all cases: glycan array binding signal (z-score within array); higher = stronger binding
Conditions in all cases: glycan notation: IUPAC condensed, linker removed
Neu5Ac(a2-3)GalNAc = target: Neu5Ac(a2-3)GalNAc
Summary of the method: (§1)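 Arrays were curated from the Consortium for Functional Glycomics database, 3228 in total, and kept only where the protein sequence was available. Binding is expressed as a within-array Z-score. This score was averaged across arrays of the same protein sequence at different concentrations or buffers and across linkers, and negative values can be read as non-binding.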

[1] = target: Neu5Ac(a2-3)GalNAc(b1-4)GlcNAc
Summary of the method: as §1

[2] = target: Neu5Ac(a2-3)[GalNAc(b1-4)]Gal(b1-4)Glc
Summary of the method: as §1

[3] = target: Neu5Ac(a2-3)[GalNAc(b1-4)]Gal(b1-4)GlcNAc
Summary of the method: as §1

[4] = target: Neu5Ac(a2-3)[GalNAc(b1-4)]Gal(b1-4)GlcNAc(b1-3)GalNAc
Summary of the method: as §1

[5] = target: Neu5Ac(a2-3)[Neu5Ac(a2-6)]GalNAc
Summary of the method: as §1

Neu5Ac(a2-6)Gal = target: Neu5Ac(a2-6)Gal
Summary of the method: as §1

[6] = target: Neu5Ac(a2-6)Gal(b1-3)GlcNAc(b1-3)[Gal(b1-4)GlcNAc(b1-6)]Gal(b1-4)Glc
Summary of the method: as §1

Neu5Ac(a2-6)Gal(b1-4)Glc = target: Neu5Ac(a2-6)Gal(b1-4)Glc
Summary of the method: as §1

[7] = target: Neu5Ac(a2-6)Gal(b1-4)GlcNAc
Summary of the method: as §1

[8] = target: Neu5Ac(a2-6)Gal(b1-4)GlcNAc(b1-2)Man
Summary of the method: as §1

[9] = target: Neu5Ac(a2-6)Gal(b1-4)GlcNAc(b1-2)Man(a1-3)Man(b1-4)GlcNAc(b1-4)GlcNAc
Summary of the method: as §1

[10] = target: Neu5Ac(a2-6)Gal(b1-4)GlcNAc(b1-2)Man(a1-3)[Gal(b1-4)GlcNAc(b1-2)Man(a1-6)]Man(b1-4)GlcNAc(b1-4)GlcNAc
Summary of the method: as §1

[11] = target: Neu5Ac(a2-6)Gal(b1-4)GlcNAc(b1-2)Man(a1-3)[GlcNAc(b1-2)Man(a1-6)]Man(b1-4)GlcNAc(b1-4)GlcNAc
Summary of the method: as §1

[12] = target: Neu5Ac(a2-6)Gal(b1-4)GlcNAc(b1-2)Man(a1-3)[GlcNAc(b1-4)][Neu5Ac(a2-6)Gal(b1-4)GlcNAc(b1-2)Man(a1-6)]Man(b1-4)GlcNAc(b1-4)GlcNAc
Summary of the method: as §1

[13] = target: Neu5Ac(a2-6)Gal(b1-4)GlcNAc(b1-2)Man(a1-3)[Man(a1-6)]Man(b1-4)GlcNAc(b1-4)GlcNAc
Summary of the method: as §1

[14] = target: Neu5Ac(a2-6)Gal(b1-4)GlcNAc(b1-2)Man(a1-3)[Neu5Ac(a2-3)Gal(b1-4)GlcNAc(b1-2)Man(a1-6)]Man(b1-4)GlcNAc(b1-4)GlcNAc
Summary of the method: as §1

[15] = target: Neu5Ac(a2-6)Gal(b1-4)GlcNAc(b1-2)Man(a1-3)[Neu5Ac(a2-6)Gal(b1-4)GlcNAc(b1-2)Man(a1-6)]Man(b1-4)GlcNAc(b1-4)GlcNAc
Summary of the method: as §1

[16] = target: Neu5Ac(a2-6)Gal(b1-4)GlcNAc(b1-2)Man(a1-3)[Neu5Ac(a2-6)Gal(b1-4)GlcNAc(b1-2)Man(a1-6)]Man(b1-4)GlcNAc(b1-4)[Fuc(a1-6)]GlcNAc
Summary of the method: as §1

[17] = target: Neu5Ac(a2-6)Gal(b1-4)GlcNAc(b1-2)Man(a1-6)Man(b1-4)GlcNAc(b1-4)GlcNAc
Summary of the method: as §1

[18] = target: Neu5Ac(a2-6)Gal(b1-4)GlcNAc(b1-2)Man(a1-6)[Gal(b1-4)GlcNAc(b1-2)Man(a1-3)]Man(b1-4)GlcNAc(b1-4)GlcNAc
Summary of the method: as §1

[19] = target: Neu5Ac(a2-6)Gal(b1-4)GlcNAc(b1-2)Man(a1-6)[GlcNAc(b1-2)Man(a1-3)]Man(b1-4)GlcNAc(b1-4)GlcNAc
Summary of the method: as §1

[20] = target: Neu5Ac(a2-6)Gal(b1-4)GlcNAc(b1-2)Man(a1-6)[Man(a1-3)]Man(b1-4)GlcNAc(b1-4)GlcNAc
Summary of the method: as §1

[21] = target: Neu5Ac(a2-6)Gal(b1-4)GlcNAc(b1-2)[Neu5Ac(a2-6)Gal(b1-4)GlcNAc(b1-4)]Man(a1-3)[GlcNAc(b1-4)][Neu5Ac(a2-6)Gal(b1-4)GlcNAc(b1-2)[Neu5Ac(a2-6)Gal(b1-4)GlcNAc(b1-6)]Man(a1-6)]Man(b1-4)GlcNAc(b1-4)GlcNAc
Summary of the method: as §1

[22] = target: Neu5Ac(a2-6)Gal(b1-4)GlcNAc(b1-2)[Neu5Ac(a2-6)Gal(b1-4)GlcNAc(b1-4)]Man(a1-3)[GlcNAc(b1-4)][Neu5Ac(a2-6)Gal(b1-4)GlcNAc(b1-4)Man(a1-6)]Man(b1-4)GlcNAc(b1-4)GlcNAc
Summary of the method: as §1

[23] = target: Neu5Ac(a2-6)Gal(b1-4)GlcNAc(b1-2)[Neu5Ac(a2-6)Gal(b1-4)GlcNAc(b1-6)]Man(a1-6)[Neu5Ac(a2-6)Gal(b1-4)GlcNAc(b1-2)Man(a1-3)][GlcNAc(b1-4)]Man(b1-4)GlcNAc(b1-4)GlcNAc
Summary of the method: as §1

[24] = target: Neu5Ac(a2-6)Gal(b1-4)GlcNAc(b1-3)Gal(b1-3)GlcNAc
Summary of the method: as §1

[25] = target: Neu5Ac(a2-6)Gal(b1-4)GlcNAc(b1-3)Gal(b1-4)GlcNAc
Summary of the method: as §1

[26] = target: Neu5Ac(a2-6)Gal(b1-4)GlcNAc(b1-3)Gal(b1-4)GlcNAc(b1-2)Man(a1-3)[Neu5Ac(a2-6)Gal(b1-4)GlcNAc(b1-3)Gal(b1-4)GlcNAc(b1-2)Man(a1-6)]GalNAc
Summary of the method: as §1

[27] = target: Neu5Ac(a2-6)Gal(b1-4)GlcNAc(b1-3)Gal(b1-4)GlcNAc(b1-3)Gal(b1-4)GlcNAc
Summary of the method: as §1

[28] = target: Neu5Ac(a2-6)Gal(b1-4)GlcNAc(b1-3)Gal(b1-4)GlcNAc(b1-3)Gal(b1-4)GlcNAc(b1-2)Man(a1-3)[Neu5Ac(a2-6)Gal(b1-4)GlcNAc(b1-3)Gal(b1-4)GlcNAc(b1-3)Gal(b1-4)GlcNAc(b1-2)Man(a1-6)]GalNAc
Summary of the method: as §1

[29] = target: Neu5Ac(a2-6)Gal(b1-4)GlcNAc(b1-3)Gal(b1-4)GlcNAc(b1-3)GalNAc
Summary of the method: as §1

[30] = target: Neu5Ac(a2-6)Gal(b1-4)GlcNAc(b1-3)Gal(b1-4)GlcNAc(b1-3)[Neu5Ac(a2-6)Gal(b1-4)GlcNAc(b1-3)Gal(b1-4)GlcNAc(b1-6)]GalNAc
Summary of the method: as §1

[31] = target: Neu5Ac(a2-6)Gal(b1-4)GlcNAc(b1-3)Gal(b1-4)GlcNAc(b1-6)[Gal(b1-3)]GalNAc
Summary of the method: as §1

[32] = target: Neu5Ac(a2-6)Gal(b1-4)GlcNAc(b1-3)Gal(b1-4)[Fuc(a1-3)]GlcNAc(b1-3)Gal(b1-4)[Fuc(a1-3)]GlcNAc
Summary of the method: as §1

[33] = target: Neu5Ac(a2-6)Gal(b1-4)GlcNAc(b1-3)GalNAc
Summary of the method: as §1

[34] = target: Neu5Ac(a2-6)Gal(b1-4)GlcNAc(b1-3)[Neu5Ac(a2-6)Gal(b1-4)GlcNAc(b1-6)]GalNAc
Summary of the method: as §1

B1: PX14343I-pdi-501-30-501 (Parabacteroides distasonis) (protein)
chain: SDQYSTETFWKTKEHASAGIMGCYNALKLWRSLHTMEFDMLTANAMPYNEANGTQAIGKGEHLSTTALIGSLWKNCYVGIGRTNTFIANVGGVDMDESEKAKMVGEAKFLRAFYYLSLVDKFGGVPLIIDAPNADEQAELPRNSKEEVVNQIVKDLEEAAAVLPDTYASSDLGRATKGAALALKARTLLYNSRWAEAAQAAKQVMESGVYQLFNDYRHFFSEDNKYNCEVIFDIEAKLPEYPTDYDQNIWRLNRPAPLKELVDTYLCVDGKTIEESPLYDPTRPYENRDPRLLKSIVCIGYPYLGKTITKEDVATTGFGVKKYTSYEDDVTIPLVERSAFNFILIRYAEVLLTYAEAQNEASGPDQSVYDAINQLRRRPDINMPEVPKGLTKDQMREVIRRERRIELTFEGLYYSDILRWKTAEKENNGMMHNYEGIEVVKRSFNPKRDYLWPIPYNQTVLNPNLEQNPNWD
- glycan array binding signal (z-score) (Neu5Ac(a2-3)GalNAc): -0.086
- glycan array binding signal (z-score) [1]: -0.643
- glycan array binding signal (z-score) [2]: -0.437
- glycan array binding signal (z-score) [3]: -0.34
- glycan array binding signal (z-score) [4]: 0.034
- glycan array binding signal (z-score) [5]: -0.513
- glycan array binding signal (z-score) (Neu5Ac(a2-6)Gal): -0.303
- glycan array binding signal (z-score) [6]: -0.338
- glycan array binding signal (z-score) (Neu5Ac(a2-6)Gal(b1-4)Glc): -0.739
- glycan array binding signal (z-score) [7]: -0.2
- glycan array binding signal (z-score) [8]: 1.01
- glycan array binding signal (z-score) [9]: 0.757
- glycan array binding signal (z-score) [10]: 0.164
- glycan array binding signal (z-score) [11]: -1
- glycan array binding signal (z-score) [12]: 0.248
- glycan array binding signal (z-score) [13]: -0.404
- glycan array binding signal (z-score) [14]: 0.718
- glycan array binding signal (z-score) [15]: -0.539
- glycan array binding signal (z-score) [16]: -0.714
- glycan array binding signal (z-score) [17]: 0.027
- glycan array binding signal (z-score) [18]: -0.927
- glycan array binding signal (z-score) [19]: -0.638
- glycan array binding signal (z-score) [20]: -0.837
- glycan array binding signal (z-score) [21]: -0.632
- glycan array binding signal (z-score) [22]: -0.155
- glycan array binding signal (z-score) [23]: 0.059
- glycan array binding signal (z-score) [24]: 0.012
- glycan array binding signal (z-score) [25]: -0.597
- glycan array binding signal (z-score) [26]: -0.584
- glycan array binding signal (z-score) [27]: 0.553
- glycan array binding signal (z-score) [28]: 2.21
- glycan array binding signal (z-score) [29]: -0.954
- glycan array binding signal (z-score) [30]: 0.627
- glycan array binding signal (z-score) [31]: 0.989
- glycan array binding signal (z-score) [32]: -0.241
- glycan array binding signal (z-score) [33]: -0.688
- glycan array binding signal (z-score) [34]: 0.219

— the supplement of paper PMC8728848
